Article PMC6613617
No constants are given. Whether binding was seen depends on the method and setting. In cells and extracts the contact can be indirect. Some entries that bind do so weakly or less than the wild type.

Chains of the proteins cited; added tags and fusions are not shown. Lines headed by an entry give the natural chain unless they say otherwise; changes in a name come on top.
UniProt P28340: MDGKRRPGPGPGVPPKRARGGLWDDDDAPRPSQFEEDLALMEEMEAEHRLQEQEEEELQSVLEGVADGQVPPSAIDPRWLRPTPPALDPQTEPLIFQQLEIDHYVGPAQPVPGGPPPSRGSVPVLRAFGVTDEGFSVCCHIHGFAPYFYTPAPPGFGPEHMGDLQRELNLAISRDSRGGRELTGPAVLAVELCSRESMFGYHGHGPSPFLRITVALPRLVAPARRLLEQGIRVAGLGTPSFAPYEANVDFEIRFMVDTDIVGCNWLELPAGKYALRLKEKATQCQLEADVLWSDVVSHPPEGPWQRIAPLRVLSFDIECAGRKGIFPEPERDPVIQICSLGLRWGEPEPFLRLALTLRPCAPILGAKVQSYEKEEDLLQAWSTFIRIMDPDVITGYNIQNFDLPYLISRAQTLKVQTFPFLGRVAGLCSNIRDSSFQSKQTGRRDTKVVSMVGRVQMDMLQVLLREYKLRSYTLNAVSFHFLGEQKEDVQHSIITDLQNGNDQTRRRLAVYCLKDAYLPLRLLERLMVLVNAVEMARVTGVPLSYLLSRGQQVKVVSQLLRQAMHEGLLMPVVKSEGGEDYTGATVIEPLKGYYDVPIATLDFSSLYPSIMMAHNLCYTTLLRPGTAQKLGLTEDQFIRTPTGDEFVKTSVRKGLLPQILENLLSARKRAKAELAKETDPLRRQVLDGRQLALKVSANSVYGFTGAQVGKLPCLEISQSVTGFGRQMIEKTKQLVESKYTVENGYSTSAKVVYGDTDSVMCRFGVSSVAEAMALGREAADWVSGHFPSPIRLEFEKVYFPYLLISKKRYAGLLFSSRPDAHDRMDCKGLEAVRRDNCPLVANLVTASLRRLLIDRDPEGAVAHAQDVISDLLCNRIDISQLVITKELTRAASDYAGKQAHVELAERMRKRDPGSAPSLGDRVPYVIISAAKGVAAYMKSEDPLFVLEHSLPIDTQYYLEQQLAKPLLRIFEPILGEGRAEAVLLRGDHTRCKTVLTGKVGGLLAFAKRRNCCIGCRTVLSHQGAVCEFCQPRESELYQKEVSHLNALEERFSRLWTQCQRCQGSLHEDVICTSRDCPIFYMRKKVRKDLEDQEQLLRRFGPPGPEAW
UniProt P49005: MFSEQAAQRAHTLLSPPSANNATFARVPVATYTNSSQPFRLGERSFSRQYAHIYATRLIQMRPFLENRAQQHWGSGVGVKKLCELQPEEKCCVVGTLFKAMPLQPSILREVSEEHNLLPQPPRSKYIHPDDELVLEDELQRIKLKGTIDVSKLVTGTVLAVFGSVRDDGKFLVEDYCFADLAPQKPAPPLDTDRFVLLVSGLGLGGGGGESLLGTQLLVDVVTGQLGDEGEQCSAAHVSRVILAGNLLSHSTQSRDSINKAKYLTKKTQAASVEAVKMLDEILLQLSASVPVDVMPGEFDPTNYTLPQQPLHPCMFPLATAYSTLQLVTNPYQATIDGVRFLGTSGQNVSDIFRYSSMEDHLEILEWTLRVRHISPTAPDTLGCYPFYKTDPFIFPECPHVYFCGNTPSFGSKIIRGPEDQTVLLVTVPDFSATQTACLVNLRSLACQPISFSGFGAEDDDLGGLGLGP
UniProt P11038: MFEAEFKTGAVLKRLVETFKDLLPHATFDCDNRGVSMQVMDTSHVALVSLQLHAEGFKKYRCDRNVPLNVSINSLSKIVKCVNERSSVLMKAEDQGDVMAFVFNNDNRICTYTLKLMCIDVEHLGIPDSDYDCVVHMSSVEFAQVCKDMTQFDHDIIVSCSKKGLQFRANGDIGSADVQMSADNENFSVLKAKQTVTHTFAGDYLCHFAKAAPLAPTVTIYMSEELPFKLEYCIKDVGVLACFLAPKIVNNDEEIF

Legend:
[1] = molecular target: N-terminally Flag-tagged POLD1 H1066W (human) (UniProt P28340); test: pull-down; Flag-pull down (Flag-M2 agarose) from lysate of Sf9 cells co-expressing Flag-POLD1 variant, POLD2, POLD3 and POLD4, without PCNA; 50 mM Tris-HCl pH 8.0, 200 mM NaCl, 0.25% NP-40, 4°C; SDS-PAGE with protein stain
[2] = molecular target: N-terminally Flag-tagged POLD1 H1066Y (human) (UniProt P28340); test: as above
[3] = molecular target: N-terminally Flag-tagged POLD1 H1066W (human) (UniProt P28340); test: pull-down; Flag-pull down (Flag-M2 agarose) from lysate of Sf9 cells co-expressing Flag-POLD1 variant, POLD2 and POLD3 (three-subunit Pol δ3, no POLD4), with or without PCNA; SDS-PAGE with protein stain
[4] = molecular target: N-terminally Flag-tagged POLD1 H1066Y (human) (UniProt P28340); test: as above
[5] = molecular target: N-terminally Flag-tagged POLD1 H1066W (human) (UniProt P28340); test: pull-down; Flag-pull down (Flag-M2 agarose) from lysate of Sf9 cells co-expressing Flag-POLD1 variant, POLD2, POLD3, POLD4 and untagged PCNA; 50 mM Tris-HCl pH 8.0, 200 mM NaCl, 0.25% NP-40, 4°C; SDS-PAGE with protein stain
[6] = molecular target: N-terminally Flag-tagged POLD1 H1066Y (human) (UniProt P28340); test: as above
[7] = molecular target: N-terminally Flag-tagged POLD1 (catalytic subunit of human DNA polymerase delta), wild type (human) (UniProt P28340); test: pull-down; Flag-pull down (Flag-M2 agarose) from lysate of Sf9 cells co-expressing Flag-POLD1 variant, POLD2, POLD3 and POLD4, without PCNA; 50 mM Tris-HCl pH 8.0, 200 mM NaCl, 0.25% NP-40, 4°C; SDS-PAGE with protein stain

Measured: binding

POLD2 (accessory subunit of human DNA polymerase delta), untagged (from UniProt P49005 1-469)
not listed: [7]
binds: all other assays above

baculovirus PCNA (from UniProt P11038 1-256)
binds: [7]
